Data as given in patent US20180244795A1.
These are yes or no findings as the source states them, for the method shown. Some results given as binding are weak or reduced against the parent protein; the word gives no strength.

Columns and labels:
[1] = target: hCD37-Fc-LAGA (amino acids 107 to 235 of human CD37 fused to human IgG1 Fc-domain) (human); assay: ELISA, hybridoma supernatant on coated antigen, native and denatured (FIG. 1B legend)
[2] = target: hCD37-Fc-LAGA (amino acids 107 to 235 of human CD37 fused to human IgG1 Fc-domain) (human); assay: ELISA, purified antibody on native coated antigen
[3] = target: hCD37-Fc-LAGA (amino acids 107 to 235 of human CD37 fused to human IgG1 Fc-domain) (human); assay: Western blot after native PAGE (Gel C), primary 1B11-2, secondary anti-mouse F(ab)2-HRP
[4] = target: hCD37-Fc-LAGA (amino acids 107 to 235 of human CD37 fused to human IgG1 Fc-domain) (human); assay: denaturing SDS PAGE Western blot
[5] = target: hCD37-Fc-LAGA (amino acids 107 to 235 of human CD37 fused to human IgG1 Fc-domain) (human); assay: ELISA, hybridoma supernatant on coated antigen; antigen taken from FIG. 1B legend
[6] = target: hCD37-Fc-LAGA (amino acids 107 to 235 of human CD37 fused to human IgG1 Fc-domain) (human); assay: native PAGE Western blot
[7] = target: hCD37-Fc-LAGA (amino acids 107 to 235 of human CD37 fused to human IgG1 Fc-domain) (human); assay: ELISA, purified antibody on native coated antigen (FIG. 2 legend)
[8] = target: hCD37-Fc-LAGA (amino acids 107 to 235 of human CD37 fused to human IgG1 Fc-domain) (human); assay: Western blot after denaturing, reducing SDS PAGE (Gel C), primary 1B11-2, secondary anti-mouse F(ab)2-HRP
[9] = target: hCD37-Fc-LAGA (amino acids 107 to 235 of human CD37 fused to human IgG1 Fc-domain) (human); assay: ELISA, native hCD37-Fc-LAGA coated on the plate, purified antibody titrated (left panel)

Measured: binding

B1: muCD37-1B11-2 mouse monoclonal anti-human CD37 antibody (antibody, mouse IgG1, kappa, V domains shown)
VH: EVQLLQSGPELVKPGASVKISCKASGYSFTGYFMNWVIQSHGKGLEWIGRINPYNGDTFYNQKFKGKATLTVDKSSTTAHMELLSLTSEDSAVYYCGSRGIVASSRFFDVWGAGTSVIVSS
VL: SIVMTQTPKFLLVSAGDRVTITCKASQGVSNDVDWYQQKPGQSPKLLIYYASNRYTGVPDRFTGSGYGTDFTFSISTVQAEDLAVYFCHQDYTSPTFGGGTKLEIKR
binds: all assays above
